In patent USRE48959:
Positions count from the first letter of the chain named. Numbers in names are those of the source. These are yes or no findings as the source states them, for the method shown. Some results given as binding are weak or reduced against the parent protein; the word gives no strength. Blank lines part the entries; values can stand above or below the binder they belong to.

What was measured:
[1] = biological target: T1, human LIV-1 (human) (UniProt Q13433); test: competition flow cytometry on CHO cells expressing recombinant human LIV-1; competitor labelled BR2-14a; FIG. 5
T1 sequence: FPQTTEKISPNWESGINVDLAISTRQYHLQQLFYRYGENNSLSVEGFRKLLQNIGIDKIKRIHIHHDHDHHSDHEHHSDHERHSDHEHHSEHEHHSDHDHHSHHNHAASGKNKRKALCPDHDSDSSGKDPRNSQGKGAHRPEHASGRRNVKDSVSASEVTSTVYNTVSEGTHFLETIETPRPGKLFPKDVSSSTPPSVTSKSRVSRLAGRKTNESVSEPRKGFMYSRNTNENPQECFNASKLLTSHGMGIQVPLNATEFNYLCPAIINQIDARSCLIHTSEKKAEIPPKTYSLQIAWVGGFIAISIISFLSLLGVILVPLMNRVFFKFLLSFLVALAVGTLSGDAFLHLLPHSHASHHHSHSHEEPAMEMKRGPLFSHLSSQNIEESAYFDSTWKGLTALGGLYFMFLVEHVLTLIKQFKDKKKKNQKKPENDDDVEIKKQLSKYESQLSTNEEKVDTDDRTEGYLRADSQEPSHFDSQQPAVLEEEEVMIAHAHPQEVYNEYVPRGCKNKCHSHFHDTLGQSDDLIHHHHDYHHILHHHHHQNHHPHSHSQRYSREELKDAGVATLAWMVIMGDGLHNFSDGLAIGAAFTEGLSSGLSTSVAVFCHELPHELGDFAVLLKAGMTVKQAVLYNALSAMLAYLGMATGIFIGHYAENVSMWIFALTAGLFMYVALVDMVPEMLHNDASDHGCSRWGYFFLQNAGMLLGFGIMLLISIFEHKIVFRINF

[2] = biological target: T1, human LIV-1 (human); test: competition flow cytometry on MCF7 cells (native human LIV-1); competitor AF647-labelled BR2-14a; FIG. 3
[3] = biological target: T1, human LIV-1 (human); test: binding curves on CHO cells expressing human LIV-1, FIG. 2
[4] = biological target: T1, human LIV-1 (human); test: competition binding assays, FIG. 17; competitor labelled BR2-22a
[5] = biological target: T1, human LIV-1 (human); test: competition flow cytometry on CHO cells expressing recombinant LIV-1; competitor labelled BR2-22a; FIG. 17
[6] = biological target: T1, human LIV-1 (human); test: competition flow cytometry on CHO cells expressing recombinant LIV-1; competitor labelled BR2-22a

binding [1]: binds | binding [2]: binds | binding [3]: binds
B1: humanized BR2-14a antibody HBLB (hLIV-1 HB + hLIV-1 LB) (antibody, human IgG1, V domains shown)
VH: QVQLVQSGAEVKKPGASVKVSCKASGYTIEDYYMHWVRQAPGQGLEWMGWIDPENGDTEYAPTFQGRVTMTRDTSINTAYMELSRLRSDDTAVYYCARHDAHYGTWFAYWGQGTLVTVSS
VL: DVVMTQSPLSLPVTLGQPASISCRSSQSIIRNDGNTYLEWYQQRPGQSPRRLIYRVSNRFSGVPDRFSGSGSGTDFTLKISRVEAEDVGVYYCFQGSHVPYTFGGGTKVEIKR

binding [2]: binds | binding [3]: binds
B2: humanized BR2-14a antibody HELE (hLIV-1 HE + hLIV-1 LE) (antibody, V domains shown)
VH: B1 VH with Y27F, T28N, M48I, R67K, V68A, R72A, A97N, R98V
VL: B1 VL with Y41F, R51L

Further lines, the binder ahead of its results:

B3: humanized BR2-14a antibody HBLB S239C (antibody, V domains shown)
VH: B1 VH
VL: B1 VL
binding [1]: binds

B4: humanized BR2-22a antibody HELF (hLIV-22 HE + hLIV-22 LF) (antibody, V domains shown)
VH: QVQLVQSGAEVKKPGASVKVSCKASGLNIEDYYMHWVRQAPGQGLEWIGWIDPENGDTEYGPKFQGKATMTADTSINTAYMELSRLRSDDTAVYYCTVHNAHYGTWFAYWGQGTLVTVSS
VL: DVVMTQSPLSLPVTLGQPASISCRSSQSLLHSSGNTYLEWYLQRPGQSPKPLIYKISTRFSGVPDRFSGSGSGTDFTLKISRVEAEDVGVYYCFQGSHVPYTFGGGTKVEIKR
binding [4]: binds | binding [5]: binds | binding [6]: binds
